This experiment deals with His6P4H1 (Dictyostelium discoideum, UniProt Q86KR9). The experiment can be described thus: […]CO2-release assay with Skp1A. In kind it is biochemical. The conditions noted are these: read-out: % inhibition at 1 mM.

Sequences of proteins named here, by UniProt entry; tags and fusion partners are left off. A change or cut given only in a name is not applied to a line headed by its entry.
UniProt Q86KR9: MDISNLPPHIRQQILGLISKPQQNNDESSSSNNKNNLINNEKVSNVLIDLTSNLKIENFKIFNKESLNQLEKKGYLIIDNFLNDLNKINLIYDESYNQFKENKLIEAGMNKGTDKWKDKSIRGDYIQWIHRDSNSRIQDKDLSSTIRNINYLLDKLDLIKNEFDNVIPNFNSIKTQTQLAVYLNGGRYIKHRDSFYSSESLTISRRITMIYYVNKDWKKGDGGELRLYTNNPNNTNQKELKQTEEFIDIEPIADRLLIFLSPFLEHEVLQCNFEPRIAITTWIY

As to `O=C(O)CC(O)(CC(=O)O)C(=O)O` [citrate], the inhibition at 1000 µM was in the range of 50 to 70%.

The values above are taken from paper PMC3192012 (Biochemistry, 2011).
